This series is described as follows: soluble on expression in E. coli; label from the status in PepcDB or PDB records.

The record followed here is the DeepSol protein solubility set.

Consider “MKMDMEDADMTLWTEAEFEEECTYIVNDHPWDSGADGGTSVQAEASLPRNLLFKYATNSEEVIGVMSKEYIPKGTRFGPLIGEIYTNDTVPKNANRKYFWRIYSRGELHHFIDGFNEEKSNWMRYVNPAHSPREQNLAACQNGTNIYFYTIKPIPANQELLVWYCRDFAERLHYPYPGELTMMNLTQTQSSLKQPSTEKNELCPKNVPKREYSVKEILKLDSNPSKGKDLYRSNISPLTSEKDLDDFRRRGSPEMPFYPRVVYPIRAPLPEDFLKASLAYGIERPTYITRSPIPSSTTPSPSARSSPDQSLKSSSPHSSPGNTVSPVGPGSQEHRDSYAYLNASYGTEGLGSYPGYAPLPHLPPAFIPSYNAHYPKFLLPPYGMNCNGLSAVSSMNGINNFGLFPRLCPVYSNLLGGGSLPHPVLNPTSLPSSLPSDGARRLLQPEHPREVLVPAPHSAFSFTGAAASMRDKACSPTSGSPTAGTAATAEHVVQPKATSAAMAAPSSDEAMNLIKNKRNMTGYKTLPYPLKKQNGKIKYECNVCAKTFGQLSNLKVHLRVHSGERPFKCQTCNKGFTQLAHLQKHYLVHTGEKPHECQVCHKRFSSTSNLKTHLRLHSGEKPYQCKVCPAKFTQFVHLKLHKRLHTRERPHKCSQCHKNYIHLCSLKVHLKGNCAAAPAPGLPLEDLTRINEEIEKFDISDNADRLEDVEDDISVISVVEKEILAVARKEKEETGLKVSLQRNMGNGLLSSGCSLYESSDLPLMKLPPSNPLPLVPVKVKQETVEPMDP”, for which the “soluble on expression in E. coli” value is on record as “soluble”.
